No constants are given. Whether binding was seen depends on the method and setting. Binding seen in cells or lysates may run through a third protein. Some results given as binding are weak or reduced against the parent protein; the word gives no strength.
What was measured:
His x 6 tagged ClpC1 = His x 6 tagged ClpC1 (UniProt A0R574); test: pull-down; ClpC1-His or ClpX-His (pre-incubated with 1 mM ATP for 1 hr) bound to Ni-NTA resin, incubated with lysate of exponential mc2155 cells at room temperature for 30 min; washed five times with 50 mM imidazole, eluted with 500 mM imidazole; immunoblot; only the target purified
His x 6 tagged ClpX = His x 6 tagged ClpX (UniProt A0R196); test: as above

By UniProt entry, the sequences of proteins in these tests, tags left out.
UniProt A0R574: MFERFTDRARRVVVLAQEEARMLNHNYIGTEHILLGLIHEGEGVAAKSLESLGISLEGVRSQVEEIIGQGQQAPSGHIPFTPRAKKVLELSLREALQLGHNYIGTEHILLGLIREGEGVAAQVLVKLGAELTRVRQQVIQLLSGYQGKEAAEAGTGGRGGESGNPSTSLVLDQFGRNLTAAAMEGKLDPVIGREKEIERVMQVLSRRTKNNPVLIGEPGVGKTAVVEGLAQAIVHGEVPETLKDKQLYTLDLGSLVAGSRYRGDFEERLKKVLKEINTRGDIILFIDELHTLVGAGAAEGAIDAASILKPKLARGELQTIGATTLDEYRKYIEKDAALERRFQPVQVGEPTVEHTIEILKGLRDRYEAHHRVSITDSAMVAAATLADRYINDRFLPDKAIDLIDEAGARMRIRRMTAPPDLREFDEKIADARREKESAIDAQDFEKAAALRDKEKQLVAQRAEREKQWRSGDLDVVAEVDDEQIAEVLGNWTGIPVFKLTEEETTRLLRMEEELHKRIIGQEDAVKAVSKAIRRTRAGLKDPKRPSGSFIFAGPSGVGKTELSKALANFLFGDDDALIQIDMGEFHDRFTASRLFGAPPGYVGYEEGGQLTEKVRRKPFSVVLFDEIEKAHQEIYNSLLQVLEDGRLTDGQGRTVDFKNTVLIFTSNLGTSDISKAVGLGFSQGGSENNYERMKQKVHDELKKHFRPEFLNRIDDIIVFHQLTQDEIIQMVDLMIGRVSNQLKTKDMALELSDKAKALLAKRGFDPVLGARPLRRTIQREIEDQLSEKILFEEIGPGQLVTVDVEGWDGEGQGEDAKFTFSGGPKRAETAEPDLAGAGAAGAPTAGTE
UniProt A0R196: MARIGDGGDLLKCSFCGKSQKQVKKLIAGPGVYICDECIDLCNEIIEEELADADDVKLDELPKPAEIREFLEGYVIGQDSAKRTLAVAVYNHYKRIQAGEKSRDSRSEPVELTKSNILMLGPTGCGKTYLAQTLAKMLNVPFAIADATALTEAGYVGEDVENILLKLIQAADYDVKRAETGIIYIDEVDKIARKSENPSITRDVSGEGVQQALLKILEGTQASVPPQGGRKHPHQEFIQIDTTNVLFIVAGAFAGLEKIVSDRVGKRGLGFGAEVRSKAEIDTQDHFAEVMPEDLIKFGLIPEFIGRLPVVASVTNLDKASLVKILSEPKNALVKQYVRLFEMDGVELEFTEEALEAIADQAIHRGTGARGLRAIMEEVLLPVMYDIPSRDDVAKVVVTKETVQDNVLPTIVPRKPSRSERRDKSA

binding (His x 6 tagged ClpC1): binds
binding (His x 6 tagged ClpX): no binding
B1: CarD (protein, UniProt A0R561 1-162)
chain: MIFKVGDTVVYPHHGAALIEAIETRTIKGEQKEYLVLKVAQGDLTVRVPADNAEYVGVRDVVGQEGLDKVFQVLRAPHTEEPTNWSRRYKANLEKLASGDVNKVAEVVRDLWRRDQERGLSAGEKRMLAKARQILVGELALAENTDDAKAETILDEVLAAAS
